The values below come from PubChem BioAssay AID248 (DTP/NCI, 2004).

The list does not hold the whole screen: it gathers tests that were run many times, whatever their T/C, doses with no T/C, and many T/C values between a quarter and a half above the control. Other doses and runs of a compound stand elsewhere. T/C is the treated group as % of the vehicle group. Some doses have a count of surviving animals in place of a T/C: the source files T/C as zero there, which appears to mark a toxic dose or a test without result, not a measured value. Some survivor counts are full or nearly so, which does not show that the dose was tolerated: survival well below the control is almost never listed, so the zero probably covers shortened survival too. Counts of survivors are from the toxicity check (mostly the fifth day) where no day follows; animals may have died later. Schedules are NCI's codes, taken here to give the interval after Q, in days (D) or hours (H), and the number of doses after X. Some doses were run more than once; their values stand side by side, smallest first. Where survival is the endpoint, this PubChem deposit counts one and a half times the control or more as active, and values a quarter to a half above the control carry no call in these data; other NCI protocols may use other cut-offs.

The subject of the assay is L1210 leukemia ip in BDF1 mice, survival T/C. In words: NCI In Vivo Anticancer Drug Screen. Data for tumor model L1210 Leukemia (intraperitoneal) in B6D2F1 (BDF1) mice. The note with it: T/C endpoint: mean survival time, higher T/C = longer survival.
Setting [1] is: dose: 100.0 mg/kg/injection, schedule: Q04DX003 (ip), vehicle: saline with Tween-80.
The mark [2] stands for this setting: dose: 200.0 mg/kg/injection, schedule: Q04DX003 (ip), vehicle: saline with Tween-80.
[3] abbreviates: dose: 400.0 mg/kg/injection, schedule: Q04DX003 (ip), vehicle: saline with Tween-80.
Setting [4] is: dose: 100.0 mg/kg/injection, schedule: Q04DX002 (ip), vehicle: saline with Tween-80.
[5] abbreviates: dose: 200.0 mg/kg/injection, schedule: Q04DX002 (ip), vehicle: saline with Tween-80.
Setting [6] is: dose: 400.0 mg/kg/injection, schedule: Q04DX002 (ip), vehicle: saline with Tween-80.
Where [7] appears, read: dose: 400.0 mg/kg/injection, schedule: Q04DX003 (ip), vehicle: saline.
[8] abbreviates: dose: 100.0 mg/kg/injection, schedule: Q01DX001 (ip), vehicle: saline.
Where [9] appears, read: dose: 200.0 mg/kg/injection, schedule: Q01DX001 (ip), vehicle: saline.
[10] abbreviates: dose: 400.0 mg/kg/injection, schedule: Q01DX001 (ip), vehicle: saline.
[11] abbreviates: dose: 100.0 mg/kg/injection, schedule: Q01DX009 (ip), vehicle: saline.
Where [12] appears, read: dose: 400.0 mg/kg/injection, schedule: Q01DX009 (ip), vehicle: Klucel (hydroxypropylcellulose) (HPC).
[13] abbreviates: dose: 300.0 mg/kg/injection, schedule: Q01DX001 (ip), vehicle: other.

Regarding `O=C(O)c1cc2ccccc2oc1=O`, the survivor count is, setting by setting: (dose: 20.0 mg/kg/injection, schedule: Q01DX009 (ip), vehicle: Klucel (hydroxypropylcellulose) (HPC)) 1 of 3; (dose: 40.0 mg/kg/injection, schedule: Q01DX009 (ip), vehicle: Klucel (hydroxypropylcellulose) (HPC)) 0 of 3; under setting [1], 1 of 3; under setting [2], 0 of 3; under setting [3], 0 of 3.

With `N#CC1(Nc2ccc(-c3ccc(NC4(C#N)CCCC4)cc3)cc2)CCCC1`, the survivor count (dose: 200.0 mg/kg/injection, schedule: Q01DX001 (ip), vehicle: carboxymethylcellulose (CMC)) is listed as 4 of 4.

In the case of `Cc1ccc([NH-])cc1.Cc1ccc([NH-])cc1.[Cl][Pt+2][Cl]`, the survivor count by setting is: (dose: 25.0 mg/kg/injection, schedule: Q01DX009 (ip), vehicle: saline with Tween-80) 3 of 6; (dose: 100.0 mg/kg/injection, schedule: Q01DX009 (ip), vehicle: saline with Tween-80) 1 of 6; (dose: 200.0 mg/kg/injection, schedule: Q01DX009 (ip), vehicle: saline with Tween-80) 0 of 6; (dose: 400.0 mg/kg/injection, schedule: Q01DX009 (ip), vehicle: saline with Tween-80) 0 of 6.

Regarding `CN1C(=O)CC(c2ccc(NC(=O)CI)cc2)C1=O` (centres undefined), the survivor count by setting is: (dose: 25.0 mg/kg/injection, schedule: Q04DX002 (ip), vehicle: saline with Tween-80) 1 of 3; (dose: 50.0 mg/kg/injection, schedule: Q04DX002 (ip), vehicle: saline with Tween-80) 1 of 3; under setting [4], 0 of 3; under setting [5], 0 of 3; under setting [6], 0 of 3.

Regarding `CC(=O)/C(C)=C/C(=O)O`, the survivor count is reported as 2 of 6 (dose: 200.0 mg/kg/injection, schedule: Q04DX003 (ip), vehicle: saline) and 1 of 6 under setting [7].

Regarding `CNC(=O)n1cncn1`, the survivor count under setting [7] is 3 of 6.

Regarding `COS(=O)(=O)CCC[N+](C)(C)C`, the survivor count reads like this: under setting [8], 0 of 4; under setting [9], 0 of 4; under setting [10], 0 of 4.

As to `O=C(Nc1ccc([N+](=O)[O-])cc1)Nc1ccc([N+](=O)[O-])cc1` (tested in a mixture with another compound), the survivor count under setting [11] is given as 6 of 6.

For the compound `O=C(Nc1ccc(C(=O)O)cc1)Nc1ccccc1Cl`, the survivor count runs as follows: (dose: 200.0 mg/kg/injection, schedule: Q04DX002 (ip), vehicle: saline + alcohol) 3 of 3; (dose: 400.0 mg/kg/injection, schedule: Q04DX002 (ip), vehicle: saline + alcohol) 2 of 3.

For the compound `CCC(=O)C(CCN(C)C)(c1ccccc1)c1ccccc1`, the survivor count reads like this: under setting [9], 0 of 6; under setting [10], 0 of 6.

On to `O=[N+]([O-])c1cc([N+](=O)[O-])c(Nn2c3ccccc3c3ccccc32)c([N+](=O)[O-])c1`, for which the survivor count is 3 of 6 (dose: 50.0 mg/kg/injection, schedule: Q01DX009 (ip), vehicle: Klucel (hydroxypropylcellulose) (HPC)); 0 of 6 (dose: 100.0 mg/kg/injection, schedule: Q01DX009 (ip), vehicle: Klucel (hydroxypropylcellulose) (HPC)); 0 of 6 (dose: 200.0 mg/kg/injection, schedule: Q01DX009 (ip), vehicle: Klucel (hydroxypropylcellulose) (HPC)); 0 of 6 under setting [12].

For `C=CCOc1ccncc1`, the survivor count under setting [1] is reported as 5 of 6, the survivor count under setting [2] is given as 1 of 6 and the survivor count under setting [3] is recorded as 0 of 6.

Turning to `CN1CCC(=C2c3ccccc3C(O)c3ccccc32)CC1` (centres undefined), the survivor count is, setting by setting: (dose: 25.0 mg/kg/injection, schedule: Q01DX009 (ip), vehicle: Klucel (hydroxypropylcellulose) (HPC)) 6 of 6; (dose: 100.0 mg/kg/injection, schedule: Q04DX003 (ip), vehicle: Klucel (hydroxypropylcellulose) (HPC)) 1 of 4; (dose: 200.0 mg/kg/injection, schedule: Q04DX003 (ip), vehicle: Klucel (hydroxypropylcellulose) (HPC)) 0 of 4; (dose: 400.0 mg/kg/injection, schedule: Q04DX003 (ip), vehicle: Klucel (hydroxypropylcellulose) (HPC)) 0 of 4.

On to `NNC(=O)CC(=O)NN`, for which the survivor count under setting [7] is reported as 6 of 6.

In the case of `CC(=O)OC(C)CC[P+](c1ccccc1)(c1ccccc1)c1ccccc1` (centres undefined), under setting [13], the survivor count is 0 of 6.

For `Clc1ncnc2scnc12`, the survivor count (dose: 400.0 mg/kg/injection, schedule: Q01DX001 (ip), vehicle: carboxymethylcellulose (CMC)) is 0 of 4.

`c1ccc2cc(-c3cc4ccccc4s3)ccc2c1`: the T/C (dose: 400.0 mg/kg/injection, schedule: Q01DX009 (ip), vehicle: acetone) is 125 % of control.

As for `O=NN(CCCl)C(=O)NC1CCCCCCCCCCC1`, the T/C was 131 % of control (dose: 18.0 mg/kg/injection, schedule: Q01DX001 (ip), vehicle: carboxymethylcellulose (CMC)); 138 % of control (dose: 26.0 mg/kg/injection, schedule: Q01DX001 (ip), vehicle: carboxymethylcellulose (CMC)); 149 % of control (dose: 40.0 mg/kg/injection, schedule: Q01DX001 (ip), vehicle: carboxymethylcellulose (CMC)); 138 % of control (dose: 60.0 mg/kg/injection, schedule: Q01DX001 (ip), vehicle: carboxymethylcellulose (CMC)); 148 % of control (dose: 93.0 mg/kg/injection, schedule: Q01DX001 (ip), vehicle: carboxymethylcellulose (CMC)); 140 % of control (dose: 125.0 mg/kg/injection, schedule: Q01DX001 (ip), vehicle: carboxymethylcellulose (CMC)). Moreover, the T/C (dose: 298.0 mg/kg/injection, schedule: Q01DX001 (ip), vehicle: other) is 138 % of control and the T/C (dose: 1750.0 mg/kg/injection, schedule: Q01DX001 (ip), vehicle: other) is 135 % of control.

Take `Oc1ccc([S+](c2ccc(O)cc2)c2ccc(O)cc2)cc1`: the survivor count reads like this: (dose: 80.0 mg/kg/injection, schedule: Q01DX001 (ip), vehicle: saline) 2 of 4; under setting [8], 0 of 4; under setting [9], 0 of 4; under setting [10], 0 of 4.

On to `C[CH2][Sn](/[CH]=C/C=C/OC)([CH2]C)[CH2]C`, for which the survivor count (dose: 25.0 mg/kg/injection, schedule: Q01DX009 (ip), vehicle: saline) is reported as 0 of 3; the survivor count (dose: 50.0 mg/kg/injection, schedule: Q01DX009 (ip), vehicle: saline) was 1 of 3; the survivor count under setting [11] was 0 of 3 and 1 of 3; the survivor count (dose: 200.0 mg/kg/injection, schedule: Q01DX009 (ip), vehicle: saline) is listed as 0 of 3.

Regarding `Cc1ccc(CCCC(CC(=O)O)C(=O)O)cc1` (centres undefined), the survivor count (dose: 100.0 mg/kg/injection, schedule: Q01DX001 (ip), vehicle: saline with Tween-80) was 1 of 3; the survivor count (dose: 200.0 mg/kg/injection, schedule: Q01DX001 (ip), vehicle: saline with Tween-80) was 1 of 3; the survivor count (dose: 400.0 mg/kg/injection, schedule: Q01DX001 (ip), vehicle: saline with Tween-80) was 0 of 3.

Consider `Oc1ccc2ccccc2c1-c1c(O)ccc2ccccc12`, for which the survivor count under setting [12] is 6 of 6.

In the case of `CSc1ccc(NC(=O)Nc2cccc(Cl)c2C)cc1`, the survivor count under setting [2] is on record as 6 of 6.

With `C[N+](C)(CCCC[N+](C)(C)Cc1ccccc1)Cc1ccccc1`, the survivor count is recorded as 0 of 4 under setting [8], 0 of 4 under setting [9] and 0 of 4 under setting [10].

With `CC1=NC(C)=C(C)C1(C)C`, the survivor count under setting [4] is given as 0 of 3, the survivor count under setting [5] was 1 of 3 and the survivor count under setting [6] was 1 of 3.

On to `OC1(c2ccc(F)cc2)c2ccccc2-c2ccccc21`, for which the survivor count under setting [13] was 3 of 6.
